Values quoted from earlier work, collected in patent publication US20250230215A1, “IMMUNE CELLS EXPRESSING GLUCOSE TRANSPORTER 5 (GLUT5) AND COMPOSITIONS AND METHODS INCLUDING THE SAME” (Memorial Sloan-Kettering Cancer Center, priority 2021, published 2025).
For at least one compound, name, drawing or mass did not settle the structure.

Settings: cited from earlier work

SMILES: O=[13C](CO)[C@@H](O)[C@H](O)[C@H](O)CO [HP [2-^13C] fructose, [2-^13C] fructose]
- hyperpolarized lifetime: 13 s
